Measurements reported in patent US20110229560A1.
Results are given in words; binding and its absence hold for the method and conditions named. Some results given as binding are weak or reduced against the parent protein; the word gives no strength.

Sequences of proteins named here, by UniProt entry; tags and fusion partners are left off. A change or cut given only in a name is not applied to a line headed by its entry.
UniProt O14920: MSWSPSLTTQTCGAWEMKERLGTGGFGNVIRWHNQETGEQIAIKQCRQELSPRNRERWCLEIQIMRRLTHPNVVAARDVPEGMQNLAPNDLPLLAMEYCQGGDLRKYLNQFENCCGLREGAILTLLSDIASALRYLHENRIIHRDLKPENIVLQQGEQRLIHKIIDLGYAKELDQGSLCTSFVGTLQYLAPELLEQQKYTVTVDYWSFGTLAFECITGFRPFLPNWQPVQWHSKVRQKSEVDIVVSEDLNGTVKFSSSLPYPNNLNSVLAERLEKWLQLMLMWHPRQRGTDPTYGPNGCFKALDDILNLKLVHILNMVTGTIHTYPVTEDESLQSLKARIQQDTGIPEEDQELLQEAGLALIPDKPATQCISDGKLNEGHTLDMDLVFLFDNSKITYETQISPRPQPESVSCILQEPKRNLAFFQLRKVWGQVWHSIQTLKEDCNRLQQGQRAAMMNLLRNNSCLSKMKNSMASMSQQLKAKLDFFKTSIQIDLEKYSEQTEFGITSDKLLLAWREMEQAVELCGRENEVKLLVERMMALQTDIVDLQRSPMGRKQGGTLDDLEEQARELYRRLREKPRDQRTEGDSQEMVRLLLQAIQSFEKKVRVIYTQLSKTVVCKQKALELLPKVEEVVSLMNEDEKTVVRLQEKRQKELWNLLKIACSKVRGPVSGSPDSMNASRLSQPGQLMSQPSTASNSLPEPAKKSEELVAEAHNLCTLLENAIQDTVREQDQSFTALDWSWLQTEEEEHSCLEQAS
UniProt Q86WI3: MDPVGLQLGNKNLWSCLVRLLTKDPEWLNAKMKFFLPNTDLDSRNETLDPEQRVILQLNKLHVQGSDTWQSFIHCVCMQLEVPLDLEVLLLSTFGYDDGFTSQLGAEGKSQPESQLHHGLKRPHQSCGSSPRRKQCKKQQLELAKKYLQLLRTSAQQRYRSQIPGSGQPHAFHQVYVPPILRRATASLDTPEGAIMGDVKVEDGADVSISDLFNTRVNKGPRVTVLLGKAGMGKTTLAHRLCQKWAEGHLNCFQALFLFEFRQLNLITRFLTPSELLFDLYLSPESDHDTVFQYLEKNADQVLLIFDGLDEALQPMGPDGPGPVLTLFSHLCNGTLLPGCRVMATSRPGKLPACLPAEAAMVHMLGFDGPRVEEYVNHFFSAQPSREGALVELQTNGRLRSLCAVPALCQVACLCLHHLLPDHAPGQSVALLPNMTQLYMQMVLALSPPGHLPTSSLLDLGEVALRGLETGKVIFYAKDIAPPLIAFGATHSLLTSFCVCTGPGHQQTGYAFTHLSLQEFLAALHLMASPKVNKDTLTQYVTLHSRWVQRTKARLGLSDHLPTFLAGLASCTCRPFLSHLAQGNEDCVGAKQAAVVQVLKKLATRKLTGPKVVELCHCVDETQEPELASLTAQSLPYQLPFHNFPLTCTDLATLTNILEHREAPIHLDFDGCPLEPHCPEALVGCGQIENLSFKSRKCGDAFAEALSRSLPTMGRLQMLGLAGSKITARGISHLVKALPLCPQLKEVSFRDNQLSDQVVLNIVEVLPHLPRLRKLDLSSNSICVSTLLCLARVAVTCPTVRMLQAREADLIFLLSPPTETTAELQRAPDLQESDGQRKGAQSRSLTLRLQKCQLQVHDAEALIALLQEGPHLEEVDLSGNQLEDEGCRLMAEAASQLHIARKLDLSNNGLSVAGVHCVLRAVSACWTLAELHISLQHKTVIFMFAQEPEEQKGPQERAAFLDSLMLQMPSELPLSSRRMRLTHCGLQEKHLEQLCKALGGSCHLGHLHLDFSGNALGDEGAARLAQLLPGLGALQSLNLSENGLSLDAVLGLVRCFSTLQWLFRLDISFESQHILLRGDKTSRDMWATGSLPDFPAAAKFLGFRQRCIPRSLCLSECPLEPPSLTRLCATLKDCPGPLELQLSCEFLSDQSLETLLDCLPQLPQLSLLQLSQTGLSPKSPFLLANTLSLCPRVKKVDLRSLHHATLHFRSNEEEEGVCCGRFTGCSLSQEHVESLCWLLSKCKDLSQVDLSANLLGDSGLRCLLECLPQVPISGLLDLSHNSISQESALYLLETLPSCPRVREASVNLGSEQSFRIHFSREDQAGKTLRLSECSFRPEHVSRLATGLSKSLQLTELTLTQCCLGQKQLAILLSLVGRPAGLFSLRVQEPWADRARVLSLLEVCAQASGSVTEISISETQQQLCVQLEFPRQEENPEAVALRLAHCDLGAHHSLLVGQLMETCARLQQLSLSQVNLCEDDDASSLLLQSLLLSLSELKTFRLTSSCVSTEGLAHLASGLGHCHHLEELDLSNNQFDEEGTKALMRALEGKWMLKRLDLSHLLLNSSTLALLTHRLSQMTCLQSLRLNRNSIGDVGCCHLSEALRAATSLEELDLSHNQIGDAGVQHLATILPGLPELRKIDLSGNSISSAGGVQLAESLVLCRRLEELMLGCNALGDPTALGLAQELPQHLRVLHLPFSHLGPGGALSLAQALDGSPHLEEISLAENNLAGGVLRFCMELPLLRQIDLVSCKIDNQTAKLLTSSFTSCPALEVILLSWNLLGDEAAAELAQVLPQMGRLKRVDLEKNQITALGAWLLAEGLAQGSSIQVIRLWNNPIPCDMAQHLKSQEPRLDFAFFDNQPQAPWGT
UniProt C3VPR6: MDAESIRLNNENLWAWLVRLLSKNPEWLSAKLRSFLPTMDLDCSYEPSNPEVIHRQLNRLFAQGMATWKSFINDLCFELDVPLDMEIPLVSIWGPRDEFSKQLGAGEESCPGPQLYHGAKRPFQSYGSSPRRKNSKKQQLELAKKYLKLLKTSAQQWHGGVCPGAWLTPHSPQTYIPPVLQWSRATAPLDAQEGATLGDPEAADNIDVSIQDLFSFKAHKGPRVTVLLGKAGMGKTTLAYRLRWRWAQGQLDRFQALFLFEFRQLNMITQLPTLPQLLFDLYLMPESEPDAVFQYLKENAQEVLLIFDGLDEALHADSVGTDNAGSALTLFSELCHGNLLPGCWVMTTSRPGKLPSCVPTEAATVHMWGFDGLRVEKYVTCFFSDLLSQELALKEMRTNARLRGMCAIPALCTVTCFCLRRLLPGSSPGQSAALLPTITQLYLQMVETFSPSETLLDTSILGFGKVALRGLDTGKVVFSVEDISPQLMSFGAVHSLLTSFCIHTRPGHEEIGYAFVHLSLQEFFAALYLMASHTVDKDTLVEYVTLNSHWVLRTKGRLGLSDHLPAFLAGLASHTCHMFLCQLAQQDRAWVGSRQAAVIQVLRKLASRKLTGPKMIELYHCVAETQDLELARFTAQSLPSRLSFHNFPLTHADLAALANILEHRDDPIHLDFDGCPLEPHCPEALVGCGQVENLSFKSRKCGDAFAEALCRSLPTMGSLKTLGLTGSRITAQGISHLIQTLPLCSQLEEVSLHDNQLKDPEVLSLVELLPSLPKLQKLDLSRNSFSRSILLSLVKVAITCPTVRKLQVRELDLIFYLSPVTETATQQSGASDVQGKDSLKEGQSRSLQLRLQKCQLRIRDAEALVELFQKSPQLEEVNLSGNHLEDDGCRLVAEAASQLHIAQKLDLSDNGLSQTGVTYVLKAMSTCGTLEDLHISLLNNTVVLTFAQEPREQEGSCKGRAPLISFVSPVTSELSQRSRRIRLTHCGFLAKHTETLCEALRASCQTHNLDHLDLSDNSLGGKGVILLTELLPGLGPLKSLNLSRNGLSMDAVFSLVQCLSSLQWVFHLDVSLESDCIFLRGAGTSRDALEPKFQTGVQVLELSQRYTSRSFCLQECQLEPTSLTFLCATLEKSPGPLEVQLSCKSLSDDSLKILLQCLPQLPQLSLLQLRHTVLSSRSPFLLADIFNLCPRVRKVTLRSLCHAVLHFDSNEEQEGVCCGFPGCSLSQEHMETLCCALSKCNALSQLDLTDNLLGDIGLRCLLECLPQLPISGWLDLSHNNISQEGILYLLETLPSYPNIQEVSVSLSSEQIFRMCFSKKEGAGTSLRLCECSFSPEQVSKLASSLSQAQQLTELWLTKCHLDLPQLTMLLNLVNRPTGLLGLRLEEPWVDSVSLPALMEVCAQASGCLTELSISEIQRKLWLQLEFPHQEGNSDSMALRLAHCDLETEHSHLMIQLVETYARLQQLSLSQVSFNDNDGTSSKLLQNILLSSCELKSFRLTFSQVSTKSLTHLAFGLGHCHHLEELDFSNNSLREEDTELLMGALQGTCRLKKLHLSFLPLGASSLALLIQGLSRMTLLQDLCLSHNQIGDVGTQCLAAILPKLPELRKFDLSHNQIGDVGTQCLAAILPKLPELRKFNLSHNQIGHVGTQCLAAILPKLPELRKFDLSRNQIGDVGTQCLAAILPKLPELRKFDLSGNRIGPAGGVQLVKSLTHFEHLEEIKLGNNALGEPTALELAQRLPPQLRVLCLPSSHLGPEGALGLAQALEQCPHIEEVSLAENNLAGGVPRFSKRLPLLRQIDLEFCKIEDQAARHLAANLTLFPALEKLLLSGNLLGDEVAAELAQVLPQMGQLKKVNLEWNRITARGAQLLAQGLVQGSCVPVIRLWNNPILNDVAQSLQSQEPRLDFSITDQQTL

What was measured:
[1] = target: T1, endogenous IKKα/β (293T cells) (human) (UniProt O15111+O14920); assay: IP of HEK293T cells expressing Flag-NLRC5 with anti-IKKα, anti-Flag, anti-NEMO or control IgG, immunoblot, FIG. 21A
[2] = target: T1, endogenous IKKα/β (293T cells) (human); assay: IP of 293T lysate with anti-NLRC5, Western blot with anti-IKKα/β
[3] = target: T1, endogenous IKKα/β (293T cells) (human); assay: IP of HEK293T lysate with anti-IKKα/β, Western blot with anti-NLRC5, FIG. 8
[4] = target: T2, endogenous IKKα/β (RAW264.7 cells) (mouse) (UniProt Q60680+O88351); assay: IP of RAW264.7 lysate with anti-mNLRC5, Western blot with anti-IKKα/β
[5] = target: T2, endogenous IKKα/β (RAW264.7 cells) (mouse); assay: IP of RAW264.7 lysate with anti-IKKα/β, Western blot with mNLRC5 antibody, FIG. 8
[6] = target: T3, endogenous IKKα (RAW264.7 cells) (mouse) (UniProt Q60680); assay: IP of RAW264.7 lysate with anti-mNLRC5 after LPS, immunoblot with anti-IKKα, FIG. 23
T3 sequence (looked up): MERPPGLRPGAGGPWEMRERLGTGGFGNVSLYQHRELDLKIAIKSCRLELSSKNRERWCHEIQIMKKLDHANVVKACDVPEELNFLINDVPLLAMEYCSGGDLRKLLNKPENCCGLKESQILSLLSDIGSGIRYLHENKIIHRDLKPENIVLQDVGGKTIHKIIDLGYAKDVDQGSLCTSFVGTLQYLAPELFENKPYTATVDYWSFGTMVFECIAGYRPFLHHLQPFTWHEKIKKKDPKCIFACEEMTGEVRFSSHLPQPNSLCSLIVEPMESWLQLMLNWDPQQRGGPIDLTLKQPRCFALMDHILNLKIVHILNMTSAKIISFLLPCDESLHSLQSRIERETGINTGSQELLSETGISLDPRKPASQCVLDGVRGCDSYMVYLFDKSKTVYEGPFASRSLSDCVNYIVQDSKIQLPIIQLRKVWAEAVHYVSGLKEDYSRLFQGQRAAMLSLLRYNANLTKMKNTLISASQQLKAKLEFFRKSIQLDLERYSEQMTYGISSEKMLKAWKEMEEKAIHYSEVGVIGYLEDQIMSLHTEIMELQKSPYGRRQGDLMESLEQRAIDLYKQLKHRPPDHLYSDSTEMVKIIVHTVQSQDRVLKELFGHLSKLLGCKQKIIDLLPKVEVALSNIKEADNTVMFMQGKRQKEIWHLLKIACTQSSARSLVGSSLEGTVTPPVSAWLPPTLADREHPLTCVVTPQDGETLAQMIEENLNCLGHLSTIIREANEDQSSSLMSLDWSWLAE

[7] = target: T4, endogenous IKKβ (RAW264.7 cells) (mouse) (UniProt O88351); assay: IP of RAW264.7 lysate with anti-mNLRC5 after LPS, immunoblot with anti-IKKβ, FIG. 23
T4 sequence (looked up): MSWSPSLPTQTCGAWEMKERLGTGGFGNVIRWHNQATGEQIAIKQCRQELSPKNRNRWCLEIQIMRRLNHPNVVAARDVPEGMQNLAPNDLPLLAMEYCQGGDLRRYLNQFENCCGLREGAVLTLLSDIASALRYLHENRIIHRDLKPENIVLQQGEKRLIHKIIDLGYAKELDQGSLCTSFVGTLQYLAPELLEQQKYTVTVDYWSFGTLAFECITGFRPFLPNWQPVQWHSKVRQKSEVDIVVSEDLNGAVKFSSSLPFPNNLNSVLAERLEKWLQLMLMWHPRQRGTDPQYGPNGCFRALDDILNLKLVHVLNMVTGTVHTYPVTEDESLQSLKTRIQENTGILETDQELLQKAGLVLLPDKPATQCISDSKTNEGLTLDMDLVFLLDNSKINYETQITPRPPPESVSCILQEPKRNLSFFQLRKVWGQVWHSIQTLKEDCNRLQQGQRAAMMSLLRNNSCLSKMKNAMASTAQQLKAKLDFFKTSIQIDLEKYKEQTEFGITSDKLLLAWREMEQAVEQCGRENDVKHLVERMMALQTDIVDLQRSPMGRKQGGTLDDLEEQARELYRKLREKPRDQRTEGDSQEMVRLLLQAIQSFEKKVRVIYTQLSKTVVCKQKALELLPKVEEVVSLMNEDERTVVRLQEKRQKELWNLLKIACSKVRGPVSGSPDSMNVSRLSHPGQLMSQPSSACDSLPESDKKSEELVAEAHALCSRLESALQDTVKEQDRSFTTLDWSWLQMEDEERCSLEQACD

[8] = target: T5, endogenous RIG-I (RAW264.7 cells) (mouse) (UniProt Q6Q899); assay: IP of RAW264.7 lysate with anti-mNLRC5 after VSV-eGFP infection, blot with anti-RIG-I
T5 sequence (looked up): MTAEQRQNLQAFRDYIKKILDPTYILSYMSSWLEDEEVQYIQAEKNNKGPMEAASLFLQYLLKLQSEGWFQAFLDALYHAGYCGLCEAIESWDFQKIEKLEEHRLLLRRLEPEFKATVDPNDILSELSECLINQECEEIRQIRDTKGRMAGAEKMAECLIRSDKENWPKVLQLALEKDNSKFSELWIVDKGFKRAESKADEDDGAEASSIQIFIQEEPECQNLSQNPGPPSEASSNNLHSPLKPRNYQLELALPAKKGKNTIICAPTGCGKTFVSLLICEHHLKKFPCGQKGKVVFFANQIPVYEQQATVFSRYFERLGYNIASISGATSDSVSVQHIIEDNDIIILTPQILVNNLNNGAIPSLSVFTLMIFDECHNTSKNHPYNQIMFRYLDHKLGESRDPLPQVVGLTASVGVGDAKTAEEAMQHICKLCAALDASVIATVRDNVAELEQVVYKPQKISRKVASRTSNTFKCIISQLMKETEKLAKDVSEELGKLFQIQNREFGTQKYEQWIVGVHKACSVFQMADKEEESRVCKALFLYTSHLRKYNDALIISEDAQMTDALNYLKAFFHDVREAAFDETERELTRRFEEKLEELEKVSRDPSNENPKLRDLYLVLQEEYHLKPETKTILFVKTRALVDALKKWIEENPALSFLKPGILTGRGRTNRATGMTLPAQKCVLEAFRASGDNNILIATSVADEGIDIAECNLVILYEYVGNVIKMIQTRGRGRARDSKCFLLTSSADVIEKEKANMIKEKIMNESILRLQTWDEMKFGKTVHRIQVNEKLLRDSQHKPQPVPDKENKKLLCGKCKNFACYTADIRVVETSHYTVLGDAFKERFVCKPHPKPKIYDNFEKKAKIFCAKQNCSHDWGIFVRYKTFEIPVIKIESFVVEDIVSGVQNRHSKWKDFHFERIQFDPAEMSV

[9] = target: T3, endogenous IKKα (RAW264.7 cells) (mouse); assay: IP of RAW264.7 lysate with anti-mNLRC5 at time points after LPS, blot with anti-IKKα, FIG. 20
[10] = target: T4, endogenous IKKβ (RAW264.7 cells) (mouse); assay: IP of RAW264.7 lysate with anti-mNLRC5 at time points after LPS, blot with anti-IKKβ, FIG. 20
[11] = target: T5, endogenous RIG-I (RAW264.7 cells) (mouse); assay: IP of RAW264.7 lysate with anti-mNLRC5 after VSV-eGFP infection, Western blot with anti-RIG-I, FIG. 13D
[12] = target: T2, endogenous IKKα/β (RAW264.7 cells) (mouse); assay: IP of RAW264.7 lysate with anti-IKKα/β, anti-NEMO or control IgG, Western blot with mNLRC5 antibody, FIG. 25
[13] = target: T5, endogenous RIG-I (RAW264.7 cells) (mouse); assay: IP of RAW264.7 lysate with anti-mNLRC5 at time points after VSV-eGFP infection, Western blot with anti-RIG-I; no or only a faint band at 0, 2 and 4 h

Measured: binding

Flag-NLRC5 (human NLRC5, full length) (from UniProt Q86WI3 1-1866)
binds: [1]

endogenous human NLRC5 (293T cells) (from UniProt Q86WI3 1-1866)
binds: [2] | [3]

endogenous mouse NLRC5 (RAW264.7 cells) (from UniProt C3VPR6 1-1915)
not listed: [1] | [2] | [3]
binds: all other assays above
